Measured values as given in the supplement of paper PMC12819154, “High-throughput peptide-centric local stability assay extends protein–ligand identification to membrane proteins, tissues and bacteria” (Nature Structural & Molecular Biology, 2025).
Some of the results follow. Most entries show no effect beyond the scatter of the controls.

Protein sequences, listed by entry. Tags and fused reporters are not part of them. Lines headed by an entry give the natural chain unless they say otherwise; changes in a name come on top.
UniProt P68104, whole entry: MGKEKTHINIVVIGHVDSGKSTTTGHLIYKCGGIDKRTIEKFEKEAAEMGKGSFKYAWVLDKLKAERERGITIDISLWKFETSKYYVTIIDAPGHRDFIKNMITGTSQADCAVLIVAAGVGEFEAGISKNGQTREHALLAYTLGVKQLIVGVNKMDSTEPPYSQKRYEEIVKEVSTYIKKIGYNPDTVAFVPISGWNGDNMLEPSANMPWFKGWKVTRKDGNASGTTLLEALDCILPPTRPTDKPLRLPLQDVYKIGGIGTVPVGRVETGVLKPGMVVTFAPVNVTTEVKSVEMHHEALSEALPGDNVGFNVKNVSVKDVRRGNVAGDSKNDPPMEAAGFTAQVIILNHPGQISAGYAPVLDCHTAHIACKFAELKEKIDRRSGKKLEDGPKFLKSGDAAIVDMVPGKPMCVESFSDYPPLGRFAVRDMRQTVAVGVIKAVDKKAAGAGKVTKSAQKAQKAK
UniProt P56589: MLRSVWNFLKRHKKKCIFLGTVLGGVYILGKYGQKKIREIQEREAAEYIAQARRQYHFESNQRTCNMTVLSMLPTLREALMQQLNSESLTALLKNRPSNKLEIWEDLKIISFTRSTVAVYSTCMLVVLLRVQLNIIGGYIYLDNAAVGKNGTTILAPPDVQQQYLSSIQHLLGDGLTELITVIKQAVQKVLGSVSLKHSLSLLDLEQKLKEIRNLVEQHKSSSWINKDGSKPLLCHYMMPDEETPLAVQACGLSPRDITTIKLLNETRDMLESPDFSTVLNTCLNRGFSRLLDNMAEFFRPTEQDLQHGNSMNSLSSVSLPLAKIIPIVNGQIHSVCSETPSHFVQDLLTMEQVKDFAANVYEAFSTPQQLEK
UniProt P78356: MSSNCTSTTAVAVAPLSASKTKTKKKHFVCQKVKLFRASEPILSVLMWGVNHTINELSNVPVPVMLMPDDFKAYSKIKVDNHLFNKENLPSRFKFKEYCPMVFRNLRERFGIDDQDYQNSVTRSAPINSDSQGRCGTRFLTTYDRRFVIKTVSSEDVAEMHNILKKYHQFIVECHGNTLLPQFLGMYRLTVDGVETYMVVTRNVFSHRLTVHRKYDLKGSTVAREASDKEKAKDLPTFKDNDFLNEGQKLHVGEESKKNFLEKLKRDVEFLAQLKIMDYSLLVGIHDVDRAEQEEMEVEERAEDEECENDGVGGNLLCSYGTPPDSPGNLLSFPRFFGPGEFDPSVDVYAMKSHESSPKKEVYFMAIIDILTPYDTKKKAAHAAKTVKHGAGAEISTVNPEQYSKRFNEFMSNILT
UniProt P62834: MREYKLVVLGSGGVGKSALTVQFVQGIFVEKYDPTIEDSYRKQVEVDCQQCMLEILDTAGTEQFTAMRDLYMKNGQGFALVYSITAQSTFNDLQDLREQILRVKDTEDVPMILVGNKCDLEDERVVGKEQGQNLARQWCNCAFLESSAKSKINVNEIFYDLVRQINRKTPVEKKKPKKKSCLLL
UniProt P61966: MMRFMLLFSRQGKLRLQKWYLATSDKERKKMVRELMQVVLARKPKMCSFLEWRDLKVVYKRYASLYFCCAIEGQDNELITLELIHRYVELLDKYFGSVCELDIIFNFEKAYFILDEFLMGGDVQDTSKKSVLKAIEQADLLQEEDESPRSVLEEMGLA
UniProt P62995: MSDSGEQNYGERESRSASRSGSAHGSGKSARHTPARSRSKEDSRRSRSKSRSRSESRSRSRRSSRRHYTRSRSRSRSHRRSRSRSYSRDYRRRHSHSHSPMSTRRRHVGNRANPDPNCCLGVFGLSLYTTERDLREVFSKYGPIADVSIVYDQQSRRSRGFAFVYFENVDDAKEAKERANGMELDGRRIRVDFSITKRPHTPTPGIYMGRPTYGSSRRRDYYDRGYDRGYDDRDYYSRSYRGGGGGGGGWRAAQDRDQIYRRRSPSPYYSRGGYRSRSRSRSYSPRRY
UniProt P63279, whole entry: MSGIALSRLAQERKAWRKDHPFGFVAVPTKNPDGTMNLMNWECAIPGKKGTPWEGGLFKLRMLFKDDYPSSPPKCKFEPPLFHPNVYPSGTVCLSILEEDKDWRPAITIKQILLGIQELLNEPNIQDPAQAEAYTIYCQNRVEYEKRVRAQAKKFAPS
UniProt P58546, whole entry: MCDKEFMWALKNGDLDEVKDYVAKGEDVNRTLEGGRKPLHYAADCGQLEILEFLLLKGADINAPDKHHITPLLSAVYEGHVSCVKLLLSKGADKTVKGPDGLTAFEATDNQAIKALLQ
UniProt P57081: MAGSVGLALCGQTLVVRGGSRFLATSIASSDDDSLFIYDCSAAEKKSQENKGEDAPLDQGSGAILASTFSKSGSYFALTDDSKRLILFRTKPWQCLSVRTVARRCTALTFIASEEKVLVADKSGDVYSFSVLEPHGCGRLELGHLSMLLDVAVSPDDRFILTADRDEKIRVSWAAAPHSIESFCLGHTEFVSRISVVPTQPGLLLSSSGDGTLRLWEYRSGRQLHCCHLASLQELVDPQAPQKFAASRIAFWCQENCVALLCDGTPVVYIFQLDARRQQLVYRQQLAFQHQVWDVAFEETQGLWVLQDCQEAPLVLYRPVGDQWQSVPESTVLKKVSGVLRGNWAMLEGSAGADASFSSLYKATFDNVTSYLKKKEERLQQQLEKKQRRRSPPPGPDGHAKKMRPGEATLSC
UniProt P68366, whole entry: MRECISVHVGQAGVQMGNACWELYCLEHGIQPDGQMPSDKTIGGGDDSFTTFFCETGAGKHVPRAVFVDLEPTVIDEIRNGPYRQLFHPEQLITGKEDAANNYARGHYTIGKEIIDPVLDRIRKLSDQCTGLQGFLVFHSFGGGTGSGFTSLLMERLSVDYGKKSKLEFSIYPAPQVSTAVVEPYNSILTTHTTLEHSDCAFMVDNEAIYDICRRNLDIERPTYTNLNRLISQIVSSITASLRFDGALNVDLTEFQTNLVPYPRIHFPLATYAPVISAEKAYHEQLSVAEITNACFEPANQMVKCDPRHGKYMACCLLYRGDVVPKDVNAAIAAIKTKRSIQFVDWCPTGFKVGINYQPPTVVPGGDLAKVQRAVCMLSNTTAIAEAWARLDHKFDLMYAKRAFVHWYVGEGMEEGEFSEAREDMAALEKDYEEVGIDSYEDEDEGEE
UniProt P62330: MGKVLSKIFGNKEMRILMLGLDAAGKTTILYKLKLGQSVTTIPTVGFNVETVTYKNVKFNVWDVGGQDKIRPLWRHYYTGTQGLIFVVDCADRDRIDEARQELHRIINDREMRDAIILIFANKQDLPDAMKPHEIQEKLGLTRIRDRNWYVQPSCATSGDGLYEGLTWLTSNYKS
UniProt P55197: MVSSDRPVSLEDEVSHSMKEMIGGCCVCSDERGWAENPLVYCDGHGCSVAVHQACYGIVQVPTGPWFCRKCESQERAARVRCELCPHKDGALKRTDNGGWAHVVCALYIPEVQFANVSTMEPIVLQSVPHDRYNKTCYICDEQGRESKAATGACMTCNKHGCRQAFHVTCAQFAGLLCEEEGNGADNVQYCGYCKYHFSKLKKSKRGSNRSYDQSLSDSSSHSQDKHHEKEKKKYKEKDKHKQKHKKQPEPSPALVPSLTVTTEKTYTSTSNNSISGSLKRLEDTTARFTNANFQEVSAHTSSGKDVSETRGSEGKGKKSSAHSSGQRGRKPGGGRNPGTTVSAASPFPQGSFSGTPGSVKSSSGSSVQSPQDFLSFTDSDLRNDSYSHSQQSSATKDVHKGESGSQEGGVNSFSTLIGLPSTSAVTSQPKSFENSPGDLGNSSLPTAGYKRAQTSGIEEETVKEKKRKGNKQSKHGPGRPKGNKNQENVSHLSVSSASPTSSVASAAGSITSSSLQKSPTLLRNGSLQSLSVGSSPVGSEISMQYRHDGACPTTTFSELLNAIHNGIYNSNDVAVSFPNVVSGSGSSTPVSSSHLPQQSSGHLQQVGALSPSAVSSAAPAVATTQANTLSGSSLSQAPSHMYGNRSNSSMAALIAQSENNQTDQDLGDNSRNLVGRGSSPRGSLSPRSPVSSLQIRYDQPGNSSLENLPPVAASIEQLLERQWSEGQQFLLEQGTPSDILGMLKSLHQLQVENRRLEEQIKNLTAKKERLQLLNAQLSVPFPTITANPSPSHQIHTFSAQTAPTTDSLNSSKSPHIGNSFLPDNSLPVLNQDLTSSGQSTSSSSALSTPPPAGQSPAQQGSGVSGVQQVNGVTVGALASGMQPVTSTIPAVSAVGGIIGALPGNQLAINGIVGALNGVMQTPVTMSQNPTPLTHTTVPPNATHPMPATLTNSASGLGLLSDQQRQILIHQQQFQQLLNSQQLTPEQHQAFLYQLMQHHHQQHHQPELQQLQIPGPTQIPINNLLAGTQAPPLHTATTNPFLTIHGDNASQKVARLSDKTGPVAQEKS
UniProt P57768: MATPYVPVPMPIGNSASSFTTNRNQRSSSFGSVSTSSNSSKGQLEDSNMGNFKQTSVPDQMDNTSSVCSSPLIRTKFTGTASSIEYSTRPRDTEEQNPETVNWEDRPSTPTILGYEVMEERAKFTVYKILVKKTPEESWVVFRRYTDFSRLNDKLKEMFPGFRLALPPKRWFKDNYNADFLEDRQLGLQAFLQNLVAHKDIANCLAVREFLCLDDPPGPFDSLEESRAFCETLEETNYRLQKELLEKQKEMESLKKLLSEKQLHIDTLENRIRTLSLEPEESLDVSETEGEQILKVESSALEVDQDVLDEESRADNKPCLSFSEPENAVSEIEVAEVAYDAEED
UniProt P68363, whole entry: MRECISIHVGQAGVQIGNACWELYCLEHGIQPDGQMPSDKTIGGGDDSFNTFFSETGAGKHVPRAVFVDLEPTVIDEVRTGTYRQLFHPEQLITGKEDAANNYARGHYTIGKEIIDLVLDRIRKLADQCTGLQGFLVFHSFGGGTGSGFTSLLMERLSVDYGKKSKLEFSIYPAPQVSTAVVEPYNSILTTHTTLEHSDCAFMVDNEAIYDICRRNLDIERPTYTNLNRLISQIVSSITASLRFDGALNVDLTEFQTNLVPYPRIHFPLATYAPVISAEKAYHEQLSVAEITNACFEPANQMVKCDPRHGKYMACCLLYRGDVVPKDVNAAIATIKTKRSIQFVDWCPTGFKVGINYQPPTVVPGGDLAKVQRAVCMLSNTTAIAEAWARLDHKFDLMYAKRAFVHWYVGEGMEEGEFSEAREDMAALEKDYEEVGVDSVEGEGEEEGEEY
UniProt P56706: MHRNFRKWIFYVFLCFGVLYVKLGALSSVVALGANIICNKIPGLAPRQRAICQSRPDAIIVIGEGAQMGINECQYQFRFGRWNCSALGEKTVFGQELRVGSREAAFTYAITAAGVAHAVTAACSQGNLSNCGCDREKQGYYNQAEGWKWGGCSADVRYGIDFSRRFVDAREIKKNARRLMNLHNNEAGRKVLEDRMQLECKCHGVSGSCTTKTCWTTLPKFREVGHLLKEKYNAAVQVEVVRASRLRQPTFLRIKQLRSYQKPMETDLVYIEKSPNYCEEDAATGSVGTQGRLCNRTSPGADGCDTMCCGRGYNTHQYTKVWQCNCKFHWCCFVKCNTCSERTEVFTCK
UniProt P62306, whole entry, looked up: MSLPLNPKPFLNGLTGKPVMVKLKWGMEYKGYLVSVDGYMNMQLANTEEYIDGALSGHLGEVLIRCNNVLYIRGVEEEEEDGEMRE
UniProt P57060: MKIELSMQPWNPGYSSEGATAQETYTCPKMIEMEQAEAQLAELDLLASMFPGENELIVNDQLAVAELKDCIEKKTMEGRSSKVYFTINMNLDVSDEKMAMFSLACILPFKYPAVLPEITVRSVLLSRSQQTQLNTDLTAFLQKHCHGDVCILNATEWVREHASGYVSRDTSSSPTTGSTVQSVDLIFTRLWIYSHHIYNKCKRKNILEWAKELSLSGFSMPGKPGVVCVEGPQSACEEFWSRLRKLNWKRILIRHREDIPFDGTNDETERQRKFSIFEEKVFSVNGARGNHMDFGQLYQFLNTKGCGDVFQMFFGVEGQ
UniProt P62166, whole entry, looked up: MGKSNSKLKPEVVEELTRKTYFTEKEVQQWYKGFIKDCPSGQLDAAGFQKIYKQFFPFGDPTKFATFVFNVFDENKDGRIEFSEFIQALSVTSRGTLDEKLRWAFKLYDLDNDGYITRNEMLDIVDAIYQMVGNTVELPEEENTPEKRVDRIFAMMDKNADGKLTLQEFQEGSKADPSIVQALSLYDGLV

Each target was assayed with Cc1nc(Nc2ncc(C(=O)Nc3c(C)cccc3Cl)s2)cc(N2CCN(CCO)CC2)n1 [dasatinib] (assay: log2 fold change of tryptic peptide abundance, ligand vs vehicle (limited proteolysis) (log2 ratio); higher = more trypsin-susceptible (destabilized)). Conditions: ligand concentration: 5 uM; sample: K562 cleared lysate.

Q: How did the log2 fold change turn out when “P62892 (peptide sequence: QKQNRPIPQWIR, peptide start residue: 17) (UniProt P62891)” was run?
A: -0.0389

Q: “EEF1A1 (peptide sequence: EHALLAYTLGVK, peptide start residue: 135) (UniProt P68104)” was tested. Which log2 fold change did it give?
A: 0.148

Q: How did the log2 fold change turn out when “CTBP2 (peptide sequence: DCTVEMPILK, peptide start residue: 37) (UniProt P56545)” was run?
A: -0.109

Q: Which log2 fold change does the source give for “PEX3 (peptide sequence: NRPSNKLEIWEDLK, peptide start residue: 95) (UniProt P56589)” here?
A: 0.304

Q: Which log2 fold change does the source give for “UniProt P61160 (peptide sequence: DLMVGDEASELR, peptide start residue: 54)” here?
A: 0.0714

Q: “UniProt P61964 (peptide sequence: KPETEAAR, peptide start residue: 7)” was tested. Which log2 fold change did it give?
A: -0.109

Q: With “UniProt P61353 (peptide sequence: YSVDIPLDKTVVNK, peptide start residue: 85)” as the target, how does the log2 fold change read?
A: -0.08

Q: For “UniProt P78356 (peptide sequence: SAPINSDSQGR, peptide start residue: 124)”, which log2 fold change is on record?
A: -0.241

Q: With “UniProt P62834 (peptide sequence: LVVLGSGGVGK, peptide start residue: 6)” as the target, how does the log2 fold change read?
A: 0.127

Q: “UniProt P61966 (peptide sequence: ELMQVVLAR, peptide start residue: 34)” was tested. Which log2 fold change did it give?
A: -0.152

Q: Which log2 fold change does the source give for “UniProt P62995 (peptide sequence: SRGFAFVYFENVDDAK, peptide start residue: 158)” here?
A: -0.657

Q: Which log2 fold change does the source give for “UniProt P63279 (peptide sequence: GTPWEGGLFK, peptide start residue: 50)” here?
A: -0.088

Q: “MTPN (peptide sequence: NGDLDEVKDYVAK, peptide start residue: 12) (UniProt P58546)” was tested. Which log2 fold change did it give?
A: 0.0934

Q: For “UniProt P62249 (peptide sequence: VKGGGHVAQIYAIRQSISK, peptide start residue: 72)”, which log2 fold change is on record?
A: 0.65

Q: For “UniProt P62875 (peptide sequence: LLNYAPLEK, peptide start residue: 59)”, which log2 fold change is on record?
A: 0.0343

Q: How did the log2 fold change turn out when “WDR4 (peptide sequence: ATFDNVTSYLK, peptide start residue: 363) (UniProt P57081)” was run?
A: 0.0843

Q: For “UniProt P68366 (peptide sequence: HGKYMACCLLYR, peptide start residue: 309)”, which log2 fold change is on record?
A: -0.0849

Q: “RPL7A (peptide sequence: KTCTTVAFTQVNSEDK, peptide start residue: 197) (UniProt P62424)” was tested. Which log2 fold change did it give?
A: -0.207

Q: With “UniProt P62244 (peptide sequence: QFGFIVLTTSAGIMDHEEARRK, peptide start residue: 98)” as the target, how does the log2 fold change read?
A: 0.48

Q: “UniProt P62330 (peptide sequence: QDLPDAMKPHEIQEK, peptide start residue: 124)” was tested. Which log2 fold change did it give?
A: -0.452

Q: For “MLLT10 (peptide sequence: AQTSGIEEETVK, peptide start residue: 453) (UniProt P55197)”, which log2 fold change is on record?
A: -0.968

Q: How did the log2 fold change turn out when “SNX16 (peptide sequence: TKFTGTASSIEYSTRPR, peptide start residue: 75) (UniProt P57768)” was run?
A: 0.159

Q: “UniProt P68363 (peptide sequence: EIIDLVLDR, peptide start residue: 113)” was tested. Which log2 fold change did it give?
A: -0.0554

Q: “UniProt P56706 (peptide sequence: FVDAREIKK, peptide start residue: 166)” was tested. Which log2 fold change did it give?
A: -0.0319

Q: Which log2 fold change does the source give for “UniProt P62306 (peptide sequence: PFLNGLTGKPVMVK, peptide start residue: 9)” here?
A: 0.216

Q: How did the log2 fold change turn out when “RWDD2B (peptide sequence: GNHMDFGQLYQFLNTK, peptide start residue: 289) (UniProt P57060)” was run?
A: 0.383

Q: How did the log2 fold change turn out when “P62737 (peptide sequence: DSYVGDEAQSK, peptide start residue: 51) (UniProt P62736)” was run?
A: 0.14

Q: Which log2 fold change does the source give for “UniProt P62495 (peptide sequence: FHTEALTALLSDDSK, peptide start residue: 131)” here?
A: -0.409

Q: For “NCS1 (peptide sequence: LKPEVVEELTR, peptide start residue: 8) (UniProt P62166)”, which log2 fold change is on record?
A: 0.00306
